The record followed here is article PMC11350846 (Antibiotics, 2024).

The series is described as follows: general procedure: Fmoc solid-phase peptide synthesis; Rink amide resin (0.5 mmol/g); ethyl cyano(hydroxyimino) acetate (5 equiv) / DIC (5 equiv). The following applies: whole synthesis, overall.

For “H-Phe^1-Leu^2-Ser^3-Gly^4-IIe^5-Val^6-Gly^7-Met^8-Leu^9-D-Ala^10-Lys^11-Leu^12-Phe^13-NH2”, the isolated yield worked out at 81.2%.
The same measure for “H-Phe^1-Leu^2-Ser^3-Gly^4-IIe^5-Val^6-Gly^7-Met^8-Leu^9-D-NAL^10-Lys^11-Leu^12-Phe^13-NH2”: 24%; for “H-Phe^1-Leu^2-Ser^3-Gly^4-IIe^5-Val^6-Gly^7-Met^8-Leu^9-D-Phe^10-Lys^11-Leu^12-Phe^13-NH2”: 76.7%; for “H-Phe^1-Leu^2-Ser^3-Gly^4-IIe^5-Val^6-Gly^7-Met^8-Leu^9-D-Tyr^10-Lys^11-Leu^12-Phe^13-NH2”: 79%.
The same measure for “H-Phe^1-Leu^2-Ser^3-Gly^4-IIe^5-Val^6-Gly^7-Met^8-Leu^9-Gly^10-Lys^11-Leu^12-Phe^13-NH2”: 37%; for “H-Phe^1-Leu^2-Ser^3-Gly^4-IIe^5-Val^6-Gly^7-Met^8-Leu^9-L-Lys^10-Lys^11-Leu^12-Phe^13-NH2”: 72%.
